# Data reported in article PMC12040169 (PLOS Biology, 2025).
# The list shows a part of the results.
# Tested on: T1, CTL2-GFP (C. trachomatis L2/434/Bu, GFP-expressing)
# T1 construct: L2/434/Bu, GFP-expressing
# Design: species or system HeLa; Intracellular C. trachomatis growth in HeLa cells, bulk GFP fluorescence relative to DMSO
# Conditions: bulk GFP, single well; 28.5 h, 10 µM; inhibitor
row,SMILES,% of control remaining [%]
1,CCCN1C[C@@H](O)C[C@H]2[C@H](O)[C@@H]1c1ccccc1N2C(=O)OC [CBK007809],100
2,Cc1cc(O)nc(C(C)N2CCN(Cc3noc(C(C)(C)C)n3)CC2)n1 (stereo not drawn) [CBK305249],125.368
3,Cc1nc(S(=O)(=O)N2CCC(C(=O)N3CCCCCC3)CC2)cn1C [CBK305765],188.668
4,O=C(Nc1ccc(F)cc1)c1ccccc1NS(=O)(=O)c1ccc(C(F)(F)F)cc1[N+](=O)[O-] [CBK045439],87.4494
5,Nc1nc(OCCN2CCCC2=O)cnc1-c1cc(Cl)cc(Cl)c1 [CBK145199],152.946
6,Cc1ccc(-c2nnc(S)n2/N=C\c2ccccc2OCC(=O)O)cc1 [CBK264408],107.613
7,CCCOCCCNS(=O)(=O)c1ccc(C(C)(C)CC)cc1 [CBK044821],93.985
8,CC(C(=O)Nc1ccc(S(N)(=O)=O)cc1)N(C)Cc1ccccc1F (stereo not drawn) [CBK305840],110.641
9,FC(F)CN1CCN(Cc2ccc(Oc3cnccn3)cc2)CC1 [CBK306399],116.842
10,COc1ccc([C@@H]2CCN(C(=O)c3cc(F)cc(F)c3)C[C@H]2O)cc1 [CBK283757],103.664
11,COC[C@H]1CCCN1C(=O)[C@@H](C)C1CC[C@@]2(C)CC[C@H](NC(C)=O)[C@@H](C)[C@@H]2[C@H]1O (stereo partly drawn) [CBK289438],121.008
12,O=C(c1ccc(-n2cccn2)nc1)N1CCN(c2ccccc2O)CC1 [CBK297794],161.581
13,CC(C)c1ccc(NC(=O)NC(=O)C2CCN(CCOc3ccc4ccccc4c3)CC2)c(C(C)C)c1 [CBK034883],120.479
14,CCOC(=O)N1CCC(NS(=O)(=O)/C=C/c2ccccc2)CC1 [CBK045458],126.045
15,O=C(N/N=C\c1ccc(OCc2ccccc2)cc1)C1COc2cc3ccccc3cc2O1 (stereo not drawn) [CBK262764],125.212
16,CC(NC(=O)c1ccccc1Cn1cccn1)c1ccccn1 (stereo not drawn) [CBK281374],137.745
17,O=[N+]([O-])c1ccc(N2CCCCC2)s1 [CBK016566],100.043
18,Cc1cc2ccccc2n2c(=O)n(CC(=O)N(C(C)C)C(C)C)nc12 [CBK283885],126.751
19,CN(C)c1ccc(CC(=O)Nc2cnc(-c3ccc(F)c(Cl)c3)c(-c3ccco3)n2)cc1 [CBK037581],156.912
20,Cc1ccccc1C(NC(=O)C1CCN(C(=O)NCc2ccccc2)CC1)c1ncccc1C (stereo not drawn) [CBK060398],100
21,Cc1nnc(NS(=O)(=O)c2ccc(OC(F)(F)F)cc2)s1 [CBK026673],123.115
22,COc1ccc(C(=O)C2=C(O)C(=O)N(Cc3cccnc3)C2c2cccc([N+](=O)[O-])c2)cc1 (stereo not drawn) [CBK264661],95.2442
23,O=C(CC1CCN(C(=O)c2ccc3nsnc3c2)CC1)N1CCN(c2ccccc2)CC1 [CBK286266],128.354
24,CC(=O)Nc1ccc(S(=O)(=O)NCC#N)cc1Cl [CBK045102],123.085
25,COc1ccccc1N1CCN(c2cc(N3CCNCC3)ccc2[N+](=O)[O-])CC1 [CBK293931],147.393
26,Cc1ccc(OCC(=O)N2CCN(S(=O)(=O)c3ccccc3[N+](=O)[O-])CC2)cc1 [CBK264260],99.8383

row,SMILES,% of control remaining [%]
1,Cc1nc(SCC(=O)NC(C)c2cccnc2)oc1C (stereo not drawn) [CBK282198],121.525
2,O=C(CN1CCC[C@@H]1CN1CCCC1)Nc1ncccn1 [CBK149107],124.337
3,CC(=O)NC(c1ccccn1)C1CCCN(C(=O)C2CC2)C1 (stereo not drawn) [CBK285040],85.3385
4,Cc1sc2nc(C)n(C3CCNCC3)c(=O)c2c1C [CBK282421],107.979
5,Cc1nc(CNc2ccc3nnc(C(F)(F)F)n3n2)cs1 [CBK305674],99.2366
6,CCn1c(CC2CCN(C(=O)c3ccc(C)c(C)c3)CC2)nn(C)c1=O [CBK307133],143.026
7,Cc1ccc(OCCn2cncc2-c2cn(C)nc2C)cc1 [CBK281626],103.037
8,Cc1ccc(CN2C(=O)CSC2c2cn(-c3ccccc3)nc2-c2ccccc2)cc1 (stereo not drawn) [CBK263678],36.2103
9,O=C(Nc1ccccc1-c1nc2ccccc2s1)c1sc2cc(Cl)ccc2c1Cl [CBK268642],154.088
10,CCNC(CO)c1ccccc1 (stereo not drawn) [CBK061785],83.9839
11,O=C(O)CCC(=O)Nc1ccc(Sc2ccc([N+](=O)[O-])cc2)cc1 [CBK020438],110.674
12,Cc1cc(C(F)(F)F)nc2sc(C(=O)c3ccc4c(c3)OCO4)c(N)c12 [CBK074388],115.967
13,Cc1ccc(C)c(C2CCCN2C(=O)c2cccn(CC(=O)NC3CCCCC3)c2=O)c1 (stereo not drawn) [CBK286010],125.487
14,O=C(O)c1ccc(S(=O)(=O)NCC2CCCO2)cc1 (stereo not drawn) [CBK262364],143.692
15,Cc1ccc(N(CC(=O)N/N=C/C(C)C)S(=O)(=O)c2ccccc2)c(C)c1 [CBK262397],96.0483
16,Cn1c(=O)n(CC(=O)NC2(C)C3CCC(C3)C2(C)C)c2cccnc21 (stereo not drawn) [CBK283330],120.243
17,CN(C)C(=O)c1cc(-c2ccco2)cnc1NS(C)(=O)=O [CBK076490],103.869
18,CC1(C)N=C(c2ccc(Cl)cc2Cl)C(=S)N1 [CBK288449],107.792
19,COCCn1c(CN2CCOCC2)nc2c1c(=O)[nH]c(=O)n2C [CBK269890],107.28
20,Cn1nc(-c2ccc(S(=O)(=O)Nc3cccc(C(=O)O)c3)s2)cc1C(F)(F)F [CBK155080],140.387
21,CC1=CC(C)(NC(N)=O)NC(=S)N1 (stereo not drawn) [CBK020817],95.4335
22,O=C1NCCN(C(=O)c2cccc3cccnc23)C1Cc1ccc(-c2cccs2)cc1 (stereo not drawn) [CBK285809],94.1108
23,O=C(CC1CCCCC1)N1CCC2(CCCNC2)C1 (stereo not drawn) [CBK137154C],108.068
24,C=CCNc1nccnc1-c1cccnc1 [CBK037016],160.83
25,CCc1cnc(CNC(=O)NCc2nc3cc(C)ccc3n2C)s1 [CBK306261],150.914
26,Cc1ccc2nc(-c3ccccn3)cc(C(=O)NCc3ccccn3)c2c1 [CBK267782],137.936

# In another format: entries from further up.
row | SMILES | % of control remaining [%]
2 | Cc1cc(O)nc(C(C)N2CCN(Cc3noc(C(C)(C)C)n3)CC2)n1 (stereo not drawn) [CBK305249] | 125.368
4 | O=C(Nc1ccc(F)cc1)c1ccccc1NS(=O)(=O)c1ccc(C(F)(F)F)cc1[N+](=O)[O-] [CBK045439] | 87.4494
7 | CCCOCCCNS(=O)(=O)c1ccc(C(C)(C)CC)cc1 [CBK044821] | 93.985
12 | O=C(c1ccc(-n2cccn2)nc1)N1CCN(c2ccccc2O)CC1 [CBK297794] | 161.581
14 | CCOC(=O)N1CCC(NS(=O)(=O)/C=C/c2ccccc2)CC1 [CBK045458] | 126.045
15 | O=C(N/N=C\c1ccc(OCc2ccccc2)cc1)C1COc2cc3ccccc3cc2O1 (stereo not drawn) [CBK262764] | 125.212
16 | CC(NC(=O)c1ccccc1Cn1cccn1)c1ccccn1 (stereo not drawn) [CBK281374] | 137.745
19 | CN(C)c1ccc(CC(=O)Nc2cnc(-c3ccc(F)c(Cl)c3)c(-c3ccco3)n2)cc1 [CBK037581] | 156.912
20 | Cc1ccccc1C(NC(=O)C1CCN(C(=O)NCc2ccccc2)CC1)c1ncccc1C (stereo not drawn) [CBK060398] | 100
26 | Cc1ccc(OCC(=O)N2CCN(S(=O)(=O)c3ccccc3[N+](=O)[O-])CC2)cc1 [CBK264260] | 99.8383
3 | CC(=O)NC(c1ccccn1)C1CCCN(C(=O)C2CC2)C1 (stereo not drawn) [CBK285040] | 85.3385
5 | Cc1nc(CNc2ccc3nnc(C(F)(F)F)n3n2)cs1 [CBK305674] | 99.2366
6 | CCn1c(CC2CCN(C(=O)c3ccc(C)c(C)c3)CC2)nn(C)c1=O [CBK307133] | 143.026
7 | Cc1ccc(OCCn2cncc2-c2cn(C)nc2C)cc1 [CBK281626] | 103.037
8 | Cc1ccc(CN2C(=O)CSC2c2cn(-c3ccccc3)nc2-c2ccccc2)cc1 (stereo not drawn) [CBK263678] | 36.2103
13 | Cc1ccc(C)c(C2CCCN2C(=O)c2cccn(CC(=O)NC3CCCCC3)c2=O)c1 (stereo not drawn) [CBK286010] | 125.487
14 | O=C(O)c1ccc(S(=O)(=O)NCC2CCCO2)cc1 (stereo not drawn) [CBK262364] | 143.692
20 | Cn1nc(-c2ccc(S(=O)(=O)Nc3cccc(C(=O)O)c3)s2)cc1C(F)(F)F [CBK155080] | 140.387
21 | CC1=CC(C)(NC(N)=O)NC(=S)N1 (stereo not drawn) [CBK020817] | 95.4335

# Remaining list, next part

row,SMILES,% of control remaining [%]
1,Cc1nc([N+](=O)[O-])c(C(=O)OCc2ccccc2C#N)n1C [CBK293991],164.084
2,S=C1NC2(CCCCC2)NC12CCCCC2 [CBK006533],122.382
3,Cc1ccc(-c2noc(CN(C(=O)c3ccc(Br)o3)C(C)C)n2)cc1 [CBK269440],112.689
4,CC(C)Nc1cccnc1N(C)C1CCN(C(=O)c2cc(Br)c[nH]2)CC1 [CBK016797],125.783
5,O=C(C1CC1)N1CCCc2cc(C(O)CN3CCCCC3)ccc21 (stereo not drawn) [CBK282135],164.785
6,O=C1CN(S(=O)(=O)CCOc2ccccc2)CC(=O)N1CCc1ccccc1 [CBK261134],100.673
7,CC(Cn1cc(Cl)cn1)C(=O)N1CCN(C)CC1c1ccccc1 (stereo not drawn) [CBK282016],108.844
8,CCC(CN(C)C)C(=O)c1ccccc1 (stereo not drawn) [CBK015409C],131.563
9,Cc1ccn(-c2ccc(N3CCC(OC4CCOCC4)CC3)nn2)n1 [CBK306296],116.083
10,O=C(NC(c1ccc(Cl)cc1)c1ccsc1)C1CCN(S(=O)(=O)CC(F)(F)F)CC1 (stereo not drawn) [CBK060088],102.615
11,CCOC(=O)N1CCN(CC2CCCCN2)CC1 (stereo not drawn) [CBK022780G],142.384
12,Cc1cc(NS(=O)(=O)c2ccc(NC(=O)c3cc4ccccc4o3)cc2)no1 [CBK267597],126.287
13,CSc1nc(C)c(CCC(=O)N(C)Cc2c(C)nn(-c3ccccc3)c2C)c(=O)[nH]1 [CBK297925],146.677
14,NC(=O)COc1ccc(CNC(=O)CN2CCc3sccc3C2)cc1 [CBK306111],116.322
15,Cc1cc2nc(-c3cc(NC(=O)c4cccc([N+](=O)[O-])c4)ccc3O)oc2cc1C [CBK262855],97.2454
16,CCCNc1cncc(-c2cccc(CO)c2)n1 [CBK065433],177.03
17,CCN(C(=O)Nc1cccnc1Oc1ccc(F)cc1)C1CCOCC1 [CBK306535],144.406
18,Cc1ccc2nc(SCC(=O)O)nc(C)c2c1 [CBK265996],130.193
19,CS(=O)(=O)Nc1nccnc1N1CCN(Cc2ccc([N+](=O)[O-])cc2)CC1 [CBK084274],107.411
20,CC(=O)Nc1ccc(N2CC(C(=O)O)CC2=O)cc1 (stereo not drawn) [CBK287149],136.264
21,O=C(CCS(=O)(=O)c1ccccc1)NCc1ccccc1OC1CCNC1 (stereo not drawn) [CBK028296T],79.9766
22,CCN(CC)C(=O)c1ccccc1NS(=O)(=O)c1ccc(F)cc1 [CBK045414],121.463
23,CC1=CCN(C(=O)c2cccc(S(=O)(=O)NCC3CCCO3)c2)CC1 (stereo not drawn) [CBK304669],125.897
24,CC(C)(C)OC(=O)N1CCCC(NCc2ccccn2)CC1 (stereo not drawn) [CBK305128],108.909
25,Nc1nc2c(ccn2[C@H]2C[C@@H](O)[C@@H](CO)O2)c(=O)[nH]1 [CBK201238],123.198
26,COc1cc(/C=N/c2ccc3oc(-c4ccc(C(C)(C)C)cc4)nc3c2)ccc1OC(=O)c1ccc(Cl)cc1Cl [CBK261238],98.2163
